Data on 2 molecules can be found in article PMC6375917 (2019).

Numbering of substitutions follows the chain as printed. Results are given in words; binding and its absence hold for the method and conditions named. Binding seen in cells or lysates may run through a third protein. Some binding calls cover weakened binding; strength is not graded here. Sequences can lack the tags named with a protein.

What all share (test): pull-down; mitochondria from cells expressing His-tagged Tim50 versions solubilized with 1% digitonin, incubated with Ni-NTA agarose beads at 4 °C, eluted with Laemmli buffer with 300 mM imidazole; immunoblot with Tim50, Tim17 and Tim23 antibodies
Background: In western blotting, separated proteins are transferred to a membrane and probed.

In assay [1] the target is T1, His-tagged Tim50 D278V/R339S (yeast) (UniProt Q02776).
T1 sequence: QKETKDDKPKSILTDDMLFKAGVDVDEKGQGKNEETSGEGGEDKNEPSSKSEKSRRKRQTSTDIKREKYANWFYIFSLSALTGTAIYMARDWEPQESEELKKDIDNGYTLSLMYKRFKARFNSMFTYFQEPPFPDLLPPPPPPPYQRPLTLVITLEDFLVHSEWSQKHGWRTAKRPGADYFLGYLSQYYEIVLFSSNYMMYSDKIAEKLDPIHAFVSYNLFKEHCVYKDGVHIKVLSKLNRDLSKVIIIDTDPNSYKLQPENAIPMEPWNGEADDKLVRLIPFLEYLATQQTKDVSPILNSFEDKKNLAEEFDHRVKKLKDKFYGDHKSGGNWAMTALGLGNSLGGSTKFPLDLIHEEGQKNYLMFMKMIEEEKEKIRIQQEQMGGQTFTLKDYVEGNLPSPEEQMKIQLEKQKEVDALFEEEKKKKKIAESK

The target of assay [2] is T2, His-tagged Tim50 mutant #2 (L202M,R218G,S298R,L362S,S386F) (yeast) (UniProt Q02776).
T2 sequence: T1 sequence with L159M, R175G, V235D, S255R, S296R, L319S, S343F

The target in assay [3] is T3, His-tagged Tim50 A221D/D278V (yeast) (UniProt Q02776).
T3 sequence: T1 sequence with A178D, S296R

Assay [4] addresses T4, His-tagged Tim50 R339S (yeast) (UniProt Q02776).
T4 sequence: T1 sequence with V235D

Assay [5] addresses T5, His-tagged Tim50 N283Y (yeast) (UniProt Q02776).
T5 sequence: T1 sequence with V235D, N240Y, S296R

B1: Tim17 (protein, UniProt P39515 1-158)
chain: MSADHSRDPCPIVILNDFGGAFAMGAIGGVVWHGIKGFRNSPLGERGSGAMSAIKARAPVLGGNFGVWGGLFSTFDCAVKAVRKREDPWNAIIAGFFTGGALAVRGGWRHTRNSSITCACLLGVIEGVGLMFQRYAAWQAKPMAPPLPEAPSSQPLQA
Consider B1, for which the binding result in assay [1] and in assay [2] was “binds” throughout.

B2: Tim23 (protein, UniProt P32897 1-222)
chain: MSWLFGDKTPTDDANAAVGGQDTTKPKELSLKQSLGFEPNINNIISGPGGMHVDTARLHPLAGLDKGVEYLDLEEEQLSSLEGSQGLIPSRGWTDDLCYGTGAVYLLGLGIGGFSGMMQGLQNIPPNSPGKLQLNTVLNHITKRGPFLGNNAGILALSYNIINSTIDALRGKHDTAGSIGAGALTGALFKSSKGLKPMGYSSAMVAAACAVWCSVKKRLLEK
For the molecule B2, the binding result was “no binding” in assay [3]; “binds” in assay [4]; “binds” in assay [1]; “binds” in assay [5]; “binds” in assay [2].
